Test results: US20260200997A1, “AFFINITY AGENTS” (Repligen Corporation, priority 2022, published 2026)
These are yes or no findings as the source states them, for the method shown. Some entries that bind do so weakly or less than the wild type.

Sequences of proteins named here, by UniProt entry; tags and fusion partners are left off. A change or cut given only in a name is not applied to a line headed by its entry.
UniProt P00738: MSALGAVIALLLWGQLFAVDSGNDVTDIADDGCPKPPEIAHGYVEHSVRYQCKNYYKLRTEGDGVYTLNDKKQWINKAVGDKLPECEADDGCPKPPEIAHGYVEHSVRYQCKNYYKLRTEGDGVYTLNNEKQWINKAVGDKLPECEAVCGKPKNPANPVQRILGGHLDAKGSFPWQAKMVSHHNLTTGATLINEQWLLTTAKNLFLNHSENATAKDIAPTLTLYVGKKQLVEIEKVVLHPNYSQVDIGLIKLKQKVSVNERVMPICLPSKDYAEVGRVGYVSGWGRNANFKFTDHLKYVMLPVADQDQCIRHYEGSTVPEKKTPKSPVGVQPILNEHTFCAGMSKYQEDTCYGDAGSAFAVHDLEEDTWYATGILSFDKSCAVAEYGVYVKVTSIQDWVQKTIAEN

B1: SEQ ID NO. 88 (designed binder)
ligand: MVDAKFDKELEEARAEIERLPNLTEHQRRYFIFALRHDPSHSAHLLAAAKRHNDDQAPKAAAHHHHHHC
B2: SEQ ID NO. 89 (designed binder)
ligand: MVDAKFDKELEEARAEIERLPNLTEHQRRHFIHALRQDPSDSAALLAIAKAWNDRQAPKAAAHHHHHHC
B3: SEQ ID NO. 90 (designed binder)
ligand: MVDAKFDKELEEARAEIERLPNLTEQQRRHFIHALRHDPSDSAALLAITKAWNDRQAPKAAAHHHHHHC
B4: SEQ ID NO. 91 (designed binder)
ligand: MVDAKFDKELEEARAEIERLPNLTEHQRRHFIHALRHDPSDSAALLAIAKAWNDRQAPKAAAHHHHHHC
B5: SEQ ID NO. 92 (designed binder)
ligand: MVDAKFDKELEEARAEIERLPNLTEHQRRHFILALRQDPSDSAALLAIAKAWNDRQAPKAAAHHHHHHC
B6: SEQ ID NO. 93 (designed binder)
ligand: MVDAKFDKELEEARAEIERLPNLTEQQRRSFIHALRQDPSDSAALLAIAKAWNDRQAPKAAAHHHHHHC
B7: SEQ ID NO. 94 (designed binder)
ligand: MVDAKFDKELEEARAEIERLPNLTEQQRRNFIHALRRDPSDSAALLAIAKAWNDRQAPKAAAHHHHHHC
B8: SEQ ID NO. 95 (designed binder)
ligand: MVDAKFDKELEEARAEIERLPNLTEHQRRHFIYALRHDPSDSAALLAIAKAWNDRLAPKAAAHHHHHHC
B9: SEQ ID NO. 96 (designed binder)
ligand: MVDAKFDKELEEARAEIERLPNLTEHQRRYFIYALRHDPSQSALLLAVAKRHNDHQAPKAAAHHHHHHC

These binders were tested against Haptoglobin protein (UniProt P00738) (assay: equilibrium batch binding to ligand-conjugated resin, 1.5 mg/mL haptoglobin, 60 min, A280 of unbound).

binding, binds:
B1
B2
B3
B4
B5
B6
B7
B8
B9
